Results deposited as PubChem BioAssay AID504795 (Drosophila RNAi Screening Center, 2011).
Only reagents picked out of a larger screen are listed. 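Every listed dsRNA shows some phenotype; how reagents were selected for listing is not stated.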 Reagents against one gene are numbered here. A plus sign joins genes that one reagent is predicted to hit.

Aim: 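Fly genes whose loss alters neurite growth or neural cell form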 (primary screen)
Cell system: primary Drosophila neurons and glia
Reagents: long dsRNA against Drosophila genes, 250 ng dsRNA per well
Time to read-out: one week
Measurement: 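Descriptive morphology terms assigned by visual inspection of live automated images of GFP-marked cells, taken one week after adding 250 ng dsRNA per well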

Depletion of Mob4 (GeneID 35576) resulted in: phenotype seen, replicate 1 = abnormal cell clusters.
CG4734 (GeneID 36477) showed phenotype seen, replicate 1 = fewer cells.
Ccp84Ad (GeneID 40822) scored phenotype seen, replicate 1 = too many neurite branches.
laf (GeneID 40606) gave phenotype seen, replicate 1 = reduced axon outgrowth.
Against CG13449 (GeneID 39695), the values are phenotype seen, replicate 1 = abnormal cell clusters.
Knock-down of wrd (GeneID 42169) gave: phenotype seen, replicate 1 = too many neurite branches.
Silencing of dpr3 (GeneID 3346208) came out at: phenotype seen, replicate 1 = abnormal cell clusters.
Against Hml (GeneID 39529), the values are phenotype seen, replicate 1 = reduced axon outgrowth.
After knock-down of hiw (GeneID 32429), the record shows phenotype seen, replicate 1 = reduced axon outgrowth.
CG1888 (GeneID 35979) scored phenotype seen, replicate 1 = axon bundles split apart.
For Seipin (GeneID 31245), the values are phenotype seen, replicate 1 = abnormal cell clusters.
With knock-down of blanks (GeneID 38620) the results were phenotype seen, replicate 1 = too many neurite branches.
Fer1HCH (GeneID 46415) showed phenotype seen, replicate 1 = axon bundles split apart.
Depletion of Daxx (GeneID 33906) came out at: phenotype seen, replicate 1 = too many neurite branches.
For ich (GeneID 41069), the values are phenotype seen, replicate 1 = too many neurite branches.
With knock-down of CG12817 (GeneID 41250), the record shows phenotype seen, replicate 1 = sheet-like cell extensions.
Depletion of Bet5 (GeneID 43590) came out at: phenotype seen, replicate 1 = sheet-like cell extensions.
With knock-down of chrb (GeneID 39284), the screen gave phenotype seen, replicate 1 = too many neurite branches.
ZnT41F (GeneID 35513) scored phenotype seen, replicate 1 = axon bundles split apart.
Against Vmat (GeneID 3346192), the values are phenotype seen, replicate 1 = sheet-like cell extensions.
Polr1D + DCTN6-p27 showed phenotype seen, replicate 1 = cell fragments present.
CG30394 (GeneID 37437) scored phenotype seen, replicate 1 = abnormal cell clusters.
RpL10Ab (GeneID 39338) gave phenotype seen, replicate 1 = too many neurite branches.
With knock-down of CG13339 (GeneID 36528), the screen gave phenotype seen, replicate 1 = fewer cells.
With knock-down of ppk31 (GeneID 318575) the results were phenotype seen, replicate 1 = too many neurite branches.
After knock-down of CG15167 (GeneID 35134), the record shows phenotype seen, replicate 1 = weaker green signal.
CG42319 (GeneID 36473) scored phenotype seen, replicate 1 = beaded; swollen axons.
Knock-down of TwdlQ (GeneID 43214) resulted in: phenotype seen, replicate 1 = too many neurite branches.
CG30447 (GeneID 246621) showed phenotype seen, replicate 1 = abnormal cell clusters.
alpha-Est10 (GeneID 40896) scored phenotype seen, replicate 1 = reduced axon outgrowth.
For HDAC11 (GeneID 326120) the deposit lists phenotype seen, replicate 1 = axon bundles split apart.
Silencing of Ucp4C (GeneID 33832) gave: phenotype seen, replicate 1 = axon bundles split apart.
Polr3I (GeneID 32678) showed phenotype seen, replicate 1 = cell fragments present.
Knock-down of CG13386 (GeneID 34165) gave: phenotype seen, replicate 1 = axon bundles split apart.
Wdr62 (GeneID 33367) showed phenotype seen, replicate 1 = axon bundles split apart.
After knock-down of bdg (GeneID 36747), the record shows phenotype seen, replicate 1 = too many neurite branches.
Against obst-J (GeneID 40202), the values are phenotype seen, replicate 1 = reduced axon outgrowth.
CG17681 (GeneID 35086) showed phenotype seen, replicate 1 = axon bundles split apart.
Against CG16894 (GeneID 37280) the deposit lists phenotype seen, replicate 1 = too many neurite branches.
After knock-down of RpS11 (GeneID 36321) #1, the screen gave phenotype seen, replicate 1 = beaded; swollen axons; phenotype seen, replicate 2 = axon bundles split apart.
For RpS11 (GeneID 36321) #2 the deposit lists phenotype seen, replicate 1 = axon bundles split apart; phenotype seen, replicate 2 = sheet-like cell extensions.
CG14297 (GeneID 42260) gave phenotype seen, replicate 1 = sheet-like cell extensions.
Depletion of CenG1A (GeneID 34803) gave: phenotype seen, replicate 1 = beaded; swollen axons.
CG30291 (GeneID 246534) scored phenotype seen, replicate 1 = weaker green signal.
With knock-down of mbl (GeneID 36945) #1, the record shows phenotype seen, replicate 1 = reduced axon outgrowth.
mbl (GeneID 36945) #2 gave phenotype seen, replicate 1 = abnormal cell clusters.
For Orp8 (GeneID 42412), the values are phenotype seen, replicate 1 = beaded; swollen axons.

Not a retest: 4 of the entries above.
chrb (GeneID 39284) — phenotype seen, replicate 1 = too many neurite branches
ZnT41F (GeneID 35513) — phenotype seen, replicate 1 = axon bundles split apart
Vmat (GeneID 3346192) — phenotype seen, replicate 1 = sheet-like cell extensions
Polr1D + DCTN6-p27 — phenotype seen, replicate 1 = cell fragments present
